# Data as given in PubChem BioAssay AID493014 (National Center for Advancing Translational Sciences (NCATS), 2011).
# The list shows a part of the results. Further columns of the screen follow, without active or inactive calls. The list favours compounds with an active or inconclusive main result. Words in brackets tell the shape of the fitted curve; partial curves, single points and poor fits give uncertain potencies.
# Assay: qHTS Assay to Find Inhibitors of Chronic Active B-Cell Receptor Signaling
# Settings: ABC-DLBCL IkBa-CBG/CBR reporter, luminescence ratio (green luciferase fused to IkBa over red control in TMD8 lymphoma cells), 4 h
# In short: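 TMD8 ABC-DLBCL cells carrying doxycycline-inducible green luciferase fused to IkappaBalpha plus unfused red luciferase were exposed to compounds (up to 46 uM) for 4 hrs at 37C. Activity came from the overlap-corrected green/red luminescence ratio.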
# [1] = measured here: CBR red luminescence, cell number
# [2] = measured here: IkBa-CBG green luminescence
SMILES,AC50 [1],AC50 [2]
CCOc1ccc(S(=O)(=O)N2CCCC(C(=O)NC3CC3)C2)cc1Cl (configuration not stated),"0.206 µM [falling, full curve]",
CCCc1ccc2oc(C(=O)N(C)Cc3nccs3)c(C)c2c1,"1.78 µM [rising, full curve]",
Cc1ccc(S(=O)(=O)CNC(=S)c2cccc(Cl)c2)cc1,,"29.1 µM [falling, single point]"
O=C(C(=O)N1CCN(c2ccccc2)CC1)c1c[nH]c2ccccc12,"12.6 µM [falling, partial curve]",
COC(=O)c1cc(=O)n(-c2ccccc2)c(=Nc2ccccc2)s1,"14.6 µM [falling, partial curve, poor fit]",
COc1ccc(S(=O)(=O)N(C)CC(=O)N2CCCC2)cc1Cl,"35.5 µM [rising, single point]",
CC(C)Cn1c(-c2ccccc2)nc(=S)c2c1CCCC2,"3.66 µM [falling, single point]","6.51 µM [rising, partial curve, poor fit]"
CCc1cccc(C)c1NC(=O)CCOc1ccccc1,"20 µM [rising, partial curve, poor fit]",
Cc1cccc(Nc2nnc(SCC(=O)NC3CCCc4ccccc43)s2)c1C (configuration not stated),"29.1 µM [falling, single point]",
Cc1ccc([N+](=O)[O-])c(OCCN2CCC(Cc3ccccc3)CC2)c1,"11.2 µM [falling, partial curve]",
COC(=O)[C@@H]1Cc2c([nH]c3ccccc23)C(C)N1C(=O)c1ccccc1 (some centres not stated),"35.5 µM [falling, single point]",
Cc1cccc(C)c1OCC(O)CNS(=O)(=O)c1ccccc1C(=O)N1CCOCC1 (configuration not stated),,"0.461 µM [falling, full curve]"
CC(C)C[C@H]1C(=O)N2CCC[C@H]2[C@]2(O)O[C@](NC(=O)[C@@H]3C=C4c5cccc6[nH]c(Br)c(c56)CC4N(C)C3)(C(C)C)C(=O)N12 (some centres not stated),"8.91 µM [falling, partial curve]",
Cc1ccc(-c2nn(CC(=O)NN3CCOCC3)c(=O)c3ccccc23)cc1,"1.12 µM [falling, partial curve, poor fit]",
CCOC(=O)C1CCN(C(=O)COc2cccc(C)c2)CC1,"20.6 µM [falling, partial curve]",
Cc1ccc(-n2nc(C)c3c(C)c(CCC(=O)NCc4ccccc4)c(C)nc32)cc1,"23.1 µM [falling, single point]",
CCOC(=O)c1c(N)sc2c(NC(C)=O)cccc12,"0.501 µM [falling, full curve, poor fit]",
CN(C)CCNC(=O)C1CCN(Cc2cc3ccccc3n2Cc2ccccc2)CC1,"20 µM [falling, partial curve]",
COc1cccc(Nc2nc3ccccc3n3cnnc23)c1,"35.5 µM [falling, single point]",
O=C1C=C(NCCN2CCOCC2)C(=O)c2cnccc21,"16.4 µM [falling, partial curve]",

# Single records, as listed above:
# CCOc1ccc(S(=O)(=O)N2CCCC(C(=O)NC3CC3)C2)cc1Cl (configuration not stated) reads AC50 [1]: 0.206 µM [falling, full curve]
# CCOC(=O)c1c(N)sc2c(NC(C)=O)cccc12 reads AC50 [1]: 0.501 µM [falling, full curve, poor fit]

# Additional compounds follow.

SMILES,AC50 [1],AC50 [2]
COc1cc([N+](=O)[O-])c(OC)cc1SCc1n[nH]c(=S)n1-c1ccc(F)cc1,"2.51 µM [rising, full curve, poor fit]",
C=COCCCNc1ncnc2sc(-c3ccccc3)cc12,"6.31 µM [falling, full curve, poor fit]",
Cc1cc(C(=O)COC(=O)c2ccccc2NCCO)c(C)n1CC1CCCO1 (configuration not stated),"8.91 µM [falling, partial curve]",
Cc1ccc2oc(Nc3nc(C)c(C)c(C)n3)nc2c1,"0.447 µM [rising, full curve, poor fit]",
COc1ccc(-n2ncc3c(NC4CCCC4)ncnc32)cc1,"11.2 µM [falling, single point]",
CCC(C)c1ccc(OCC(=O)NNC(=O)C2CCCCC2)cc1 (configuration not stated),"0.562 µM [falling, partial curve, poor fit]",
CCOC(=O)c1c(NC(=O)CSc2nnc(C)c(=O)[nH]2)sc2c1CCCC2,"5.17 µM [falling, full curve]","6.51 µM [rising, partial curve, poor fit]"
Cc1ccn2cc(C(=O)N3CCCC(Nc4ccc(F)cc4)C3)nc2c1 (configuration not stated),"7.94 µM [rising, partial curve]",
CC(C)(C)NC(=O)NC(=O)CSc1cccc(C(F)(F)F)c1,"0.112 µM [falling, full curve, poor fit]",
C=CCc1cccc(/C=N/NC(=O)C(=O)Nc2ccc(C)cc2)c1O,"22.4 µM [falling, single point]",
CCn1cc(CN2CCCC(C(=O)Nc3cccc(-c4cc5ccccc5[nH]4)c3)C2)cn1 (configuration not stated),"22.4 µM [falling, single point]",
Cc1cc(C)cc(-n2c(C)cc(C(=S)N3CCOCC3)c2C)c1,,"29.1 µM [rising, partial curve, poor fit]"
O=S(=O)(NCC(c1cccnc1)N1CCOCC1)c1ccccc1 (configuration not stated),"6.31 µM [rising, full curve, poor fit]",
Nc1ccc(O)c2c(=O)cc(-c3ccccc3Cl)oc12,"2.59 µM [rising, partial curve]",
COCc1c(C(=O)N/N=C/c2c[nH]c3ccccc23)nnn1-c1nonc1N,"14.1 µM [falling, partial curve, poor fit]",
CCOc1cc([N+](=O)[O-])cc(/C=C2/NC(=O)N(Cc3ccccc3F)C2=O)c1O,"0.0891 µM [rising, full curve, poor fit]",
CC(C)(C)OC(=O)N[C@@H](/C=C/c1ccccc1)C(=O)OC(C)(C)C,"29.1 µM [rising, single point]",
Cc1ccc(C)c(NC(=S)NCc2ccc3[nH]c4c(c3c2)CCCC4)c1,"29.1 µM [rising, single point]","20.6 µM [falling, single point]"
COc1ccc(N(CC(=O)Nc2ccc3c(c2)OCCO3)S(=O)(=O)c2cccnc2)cc1,"20.6 µM [rising, partial curve, poor fit]",
